Reference: PubChem BioAssay AID1159578 (Peter MacCallum Cancer Centre, 2015)
This is an unselected part of about 18,000 reagents tested. About 1,030 of all reagents (5.7%) were called active. 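Inactive calls also include pools with fewer than 3300 nuclei, whose migration was not assessed.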 Raw values vary from plate to plate and are shown uncorrected. Unmarked entries are inactive. Not all columns of the deposit are shown.

Aim: 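siRNA pools altering how lymphatic endothelial cells close a scratch wound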 (primary screen)
System: human lymphatic endothelial cells
Knock-down reagent: siRNA pool against human genes, 40 nM
Timing: 48 h after transfection
Measurement: 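High-content imaging of dye-stained cells in a scratch assay measures filled wound area and nuclei per well; duplicate means given as ratio to mock and robust z-score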
Direction: migration robust z-score: higher = faster migration into the scratch; nuclei per well: higher = more cells in the well
Rule for the call: 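Pools averaging fewer than 3300 nuclei are never called; remaining pools count as changed when migration robust z lies outside -2 to 2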
Meaning of the calls: active = migration changed; inactive = no migration change, or too few cells

For ALDH5A1 (aldehyde dehydrogenase 5 family member A1), what does the deposit list?
migration robust z-score: 0.13; nuclei per well, duplicate mean: 5180

What did the screen give for CARMIL2 (capping protein regulator and myosin 1 linker 2)?
migration robust z-score: -1.08; nuclei per well, duplicate mean: 5498

For LILRA4 (leukocyte immunoglobulin like receptor A4), what does the deposit list?
migration robust z-score: -0.98; nuclei per well, duplicate mean: 5618

For ZMPSTE24 (zinc metallopeptidase STE24), how do the results read?
migration robust z-score: 0.57; nuclei per well, duplicate mean: 5604

With CSTF2 (cleavage stimulation factor subunit 2), what does the deposit list?
migration robust z-score: -0.87; nuclei per well, duplicate mean: 5726

Which result is listed for MED8 (mediator complex subunit 8)?
migration robust z-score: -0.34; nuclei per well, duplicate mean: 5096

For KIF7 (kinesin family member 7), what does the deposit list?
migration robust z-score: -2.14 (active); nuclei per well, duplicate mean: 3916

How did the screen score PSMC1 (proteasome 26S subunit, ATPase 1)?
migration robust z-score: -0.7; nuclei per well, duplicate mean: 5519

With STAT1 (signal transducer and activator of transcription 1), how do the results read?
migration robust z-score: 0.21; nuclei per well, duplicate mean: 4918

With SPG21 (SPG21 abhydrolase domain containing, maspardin), what does the deposit list?
migration robust z-score: -0.28; nuclei per well, duplicate mean: 5634

With BHLHE40 (basic helix-loop-helix family member e40), what does the deposit list?
migration robust z-score: 0.35; nuclei per well, duplicate mean: 6699

With ITGB2 (integrin subunit beta 2), how do the results read?
migration robust z-score: -0.78; nuclei per well, duplicate mean: 5509

For DENND6B (DENN domain containing 6B), how do the results read?
migration robust z-score: 2.92 (active); nuclei per well, duplicate mean: 6117

What did the screen give for KCTD10 (potassium channel tetramerization domain containing 10)?
migration robust z-score: -3.19; nuclei per well, duplicate mean: 3207

For RC3H2 (ring finger and CCCH-type domains 2), what does the deposit list?
migration robust z-score: -0.52; nuclei per well, duplicate mean: 5590

How did the screen score RASA2 (RAS p21 protein activator 2)?
migration robust z-score: -0.31; nuclei per well, duplicate mean: 6402

Which result is listed for VAMP1 (vesicle associated membrane protein 1)?
migration robust z-score: 0.82; nuclei per well, duplicate mean: 5893

For GFM1 (G elongation factor mitochondrial 1), what was measured?
migration robust z-score: -1.27; nuclei per well, duplicate mean: 5470

With ANKRD20A2P (ankyrin repeat domain 20 family member A2, pseudogene), what was measured?
migration robust z-score: 0; nuclei per well, duplicate mean: 5418

For BPTF (bromodomain PHD finger transcription factor), what does the deposit list?
migration robust z-score: -1.29; nuclei per well, duplicate mean: 5936

What is on record for ZNF749 (zinc finger protein 749)?
migration robust z-score: -1.31; nuclei per well, duplicate mean: 6599

What is on record for TAFA5 (TAFA chemokine like family member 5)?
migration robust z-score: -0.05; nuclei per well, duplicate mean: 7486

How did the screen score NME1 (NME/NM23 nucleoside diphosphate kinase 1)?
migration robust z-score: -1.48; nuclei per well, duplicate mean: 3623

With DCP1B (decapping mRNA 1B), what does the deposit list?
migration robust z-score: -0.83; nuclei per well, duplicate mean: 5574

What did the screen give for ZNF101 (zinc finger protein 101)?
migration robust z-score: 1.22; nuclei per well, duplicate mean: 6422

What is on record for TMEM209 (transmembrane protein 209)?
migration robust z-score: -0.24; nuclei per well, duplicate mean: 6280

What is on record for SIGMAR1 (sigma receptor chaperone 1)?
migration robust z-score: 0.36; nuclei per well, duplicate mean: 4890

No new results follow: an excerpt of the list.
BHLHE40 (basic helix-loop-helix family member e40) | migration robust z-score: 0.35; nuclei per well, duplicate mean: 6699
ITGB2 (integrin subunit beta 2) | migration robust z-score: -0.78; nuclei per well, duplicate mean: 5509
DENND6B (DENN domain containing 6B) | migration robust z-score: 2.92 (active); nuclei per well, duplicate mean: 6117
KCTD10 (potassium channel tetramerization domain containing 10) | migration robust z-score: -3.19; nuclei per well, duplicate mean: 3207
